Laboratory results from patent publication US20160090556A1, “PRODUCTS COMPRISING MALODOR REDUCTION MATERIALS” (The Procter & Gamble Company, priority 2014, published 2016).

experiment: Melamine formaldehyde PMC leakage; details: not given

SMILES	Melamine formaldehyde PMC leakage (Comment Code J)
COC1(C)CCC23CC1C(C)(C)C2CCC3C (centres unmarked) [Material 565]	J (Melamine formaldehyde PMC leakage less than or equal to 5%)
CCCCCCCC/C=C\CC=O [Material 884]	J (Melamine formaldehyde PMC leakage less than or equal to 5%)
CCCC(O)CCC1C(C)CCCC1(C)C (centres unmarked) [Material 1063]	J (Melamine formaldehyde PMC leakage less than or equal to 5%)
CC1=CC2C(=C(C)CCCC2(C)C)CC1 (centres unmarked) [Material 625]	J (Melamine formaldehyde PMC leakage less than or equal to 5%)
CC1(O)CCC2=C(CCCC2(C)C)C1 (centres unmarked) [Material 676]	J (Melamine formaldehyde PMC leakage less than or equal to 5%)
C=C1CCC=C(C)CCC2C1CC2(C)C (centres unmarked) [Material 633]	J (Melamine formaldehyde PMC leakage less than or equal to 5%)
CCC(=O)OCC(=O)OC(C)C1CCCC(C)(C)C1 (centres unmarked) [Material 1009]	J (Melamine formaldehyde PMC leakage less than or equal to 5%)
O=C(OCc1ccccc1)c1ccccc1 [Material 653]	J (Melamine formaldehyde PMC leakage less than or equal to 5%)
CCCCCCCCCOC(C)=O [Material 763]	J (Melamine formaldehyde PMC leakage less than or equal to 5%)
C=C1C=CC(C(C)CCC=C(C)C)CC1 (centres unmarked) [Material 614]	J (Melamine formaldehyde PMC leakage less than or equal to 5%)
COC(=O)c1ccccc1N=CC1CC(C)=CC(C)C1 (centres unmarked) [Material 754]	J (Melamine formaldehyde PMC leakage less than or equal to 5%)
O=C(Cc1ccccc1)OCCc1ccccc1 [Material 959]	J (Melamine formaldehyde PMC leakage less than or equal to 5%)
CC12CCCC(O)(C1)C1CC(C)(C)C1CC2 (centres unmarked) [Material 574]	J (Melamine formaldehyde PMC leakage less than or equal to 5%)
COc1cc(C=O)ccc1OC(=O)C(C)C [Material 1111]	J (Melamine formaldehyde PMC leakage less than or equal to 5%)
CC1=CCCC2(C)CCC(C(C)(C)O)CC12 (centres unmarked) [Material 712]	J (Melamine formaldehyde PMC leakage less than or equal to 5%)
CC1CC(C)(C)OC(Cc2ccccc2)O1 (centres unmarked) [Material 1003]	J (Melamine formaldehyde PMC leakage less than or equal to 5%)
CC(C)(C=O)CC1=CCC2CC1C2(C)C (centres unmarked) [Material 925]	J (Melamine formaldehyde PMC leakage less than or equal to 5%)
C=CC(=C)CCC=C(C)CCC=C(C)C=O [Material 613]	J (Melamine formaldehyde PMC leakage less than or equal to 5%)
COC(=O)c1ccccc1N=CCC(C)CCCC(C)(C)O (centres unmarked) [Material 661]	J (Melamine formaldehyde PMC leakage less than or equal to 5%)
C[C@@H]1CC[C@H]2C(C)(C)[C@H]3C[C@@]12CC1OC(C)(C)OC13C (some centres unmarked) [Material 674]	J (Melamine formaldehyde PMC leakage less than or equal to 5%)
CCOc1ccc2ccccc2c1 [Material 620]	J (Melamine formaldehyde PMC leakage less than or equal to 5%)
O=C(Cc1ccccc1)OCc1ccccc1 [Material 922]	J (Melamine formaldehyde PMC leakage less than or equal to 5%)
Cc1cc(C(C)(C)C)c(O)c(C(C)(C)C)c1 [Material 592]	J (Melamine formaldehyde PMC leakage less than or equal to 5%)
CCCCCC(=Cc1ccccc1)COC(C)=O [Material 722]	J (Melamine formaldehyde PMC leakage less than or equal to 5%)
CCCOC(C)OCCc1ccccc1 (centres unmarked) [Material 766]	J (Melamine formaldehyde PMC leakage less than or equal to 5%)
CC(=O)c1cc2c(cc1C)C(C)(C)C(C)C2(C)C (centres unmarked) [Material 927]	J (Melamine formaldehyde PMC leakage less than or equal to 5%)
CC1CCC2C(C)(C)C3CC12CCC3(C)OC=O (centres unmarked) [Material 566]	J (Melamine formaldehyde PMC leakage less than or equal to 5%)
CCCCCCCCCCCCCCCCCC(=O)OCCCC [Material 594]	J (Melamine formaldehyde PMC leakage less than or equal to 5%)
C/C=C1/CC2CC1C1CCCOC21 (centres unmarked) [Material 1008]	J (Melamine formaldehyde PMC leakage less than or equal to 5%)

same assay, conditions: class code letter within Comment Code

SMILES	Melamine formaldehyde PMC leakage (Comment Code J)
CCC(C)=CCCC(C)=CC#N [Material 158]	J (Melamine formaldehyde PMC leakage less than or equal to 5%)
O=C1CCCCCCC/C=C\CCCCCCO1 [Material 529]	J (Melamine formaldehyde PMC leakage less than or equal to 5%)
CCOC(C)OC1CCCCCCCCCCC1 (centres unmarked) [Material 363]	J (Melamine formaldehyde PMC leakage less than or equal to 5%)
CCCCCCCCCCCCCCCCCC(=O)OC [Material 100]	J (Melamine formaldehyde PMC leakage less than or equal to 5%)
CCCCCCCCCCCC(=O)OCCC(C)C [Material 238]	J (Melamine formaldehyde PMC leakage less than or equal to 5%)
O=C1CCCCCCCCOCCCCCCO1 [Material 18]	J (Melamine formaldehyde PMC leakage less than or equal to 5%)
CC1=CC2C(CC1)C(C)=CCCC2(C)C (centres unmarked) [Material 325]	J (Melamine formaldehyde PMC leakage less than or equal to 5%)
CC1=CCC(=C(C)C)CCC(C)=CCC1 [Material 295]	J (Melamine formaldehyde PMC leakage less than or equal to 5%)
CCCCCCCCCCCC(=O)OCC [Material 391]	J (Melamine formaldehyde PMC leakage less than or equal to 5%)
CCCCC(CC)COC(=O)/C=C\c1ccc(OC)cc1 (centres unmarked) [Material 1]	J (Melamine formaldehyde PMC leakage less than or equal to 5%)
CC1CCC(C(C)C)C2(C1)OCC(CO)O2 (racemic) [Material 128]	J (Melamine formaldehyde PMC leakage less than or equal to 5%)
CCCCCCCCCCCCCCCCO [Material 558]	J (Melamine formaldehyde PMC leakage less than or equal to 5%)
CCCC(=O)OC1CC2CC1C1CC=CC21 (centres unmarked) [Material 484]	J (Melamine formaldehyde PMC leakage less than or equal to 5%)
CC/C=C\CCOC(=O)c1ccccc1 [Material 541]	J (Melamine formaldehyde PMC leakage less than or equal to 5%)
CC1=CC2C(=C(C)CCC2C(C)C)CC1 (centres unmarked) [Material 467]	J (Melamine formaldehyde PMC leakage less than or equal to 5%)
COC(OC)C(C)c1ccccc1 (centres unmarked) [Material 256]	J (Melamine formaldehyde PMC leakage less than or equal to 5%)
CCCCCCCCCCCC(OC)OC [Material 421]	J (Melamine formaldehyde PMC leakage less than or equal to 5%)
CC(=O)c1c(C)c([N+](=O)[O-])c(C(C)(C)C)c([N+](=O)[O-])c1C [Material 77]	J (Melamine formaldehyde PMC leakage less than or equal to 5%)
O=C1CCCCCCCCCCCC(=O)OCCO1 [Material 378]	J (Melamine formaldehyde PMC leakage less than or equal to 5%)

same assay, conditions: code J of the Comment Code column, Table 1

SMILES	Comment Code: Melamine formaldehyde PMC leakage
Cc1cc2c(cc1C#N)C(C)(C)C(C)C(C)C2(C)C (centres unmarked) [Material 1142]	J (Melamine formaldehyde PMC leakage less than or equal to 5%)
CCC=CCCOC(=O)C(C)C [Material 1125]	J (Melamine formaldehyde PMC leakage less than or equal to 5%)
CC1CC(C)(c2ccccc2)OC(C)O1 (centres unmarked) [Material 1126]	J (Melamine formaldehyde PMC leakage less than or equal to 5%)
COC(=O)c1ccccc1/N=C\C1CCC(C)=CC1C (centres unmarked) [Material 1131]	J (Melamine formaldehyde PMC leakage less than or equal to 5%)
CC1=CC2=C(C(C)C)CC[C@@H](C)[C@H]2CC1 [Material 1147]	J (Melamine formaldehyde PMC leakage less than or equal to 5%)

same assay, conditions: code letter J

SMILES	Comment Code: Melamine formaldehyde PMC leakage
COC1(C)CCC23CC1C(C)(C)C2CCC3C (centres unmarked) [Material 565]	J (Melamine formaldehyde PMC leakage less than or equal to 5%)
CC(C)=CCC/C(C)=C/COC(=O)c1ccccc1 [Material 310]	J (Melamine formaldehyde PMC leakage less than or equal to 5%)
Cc1cc2c(cc1C#N)C(C)(C)C(C)C(C)C2(C)C (centres unmarked) [Material 1142]	J (Melamine formaldehyde PMC leakage less than or equal to 5%)
CC1(C)C2=C(CO)CCC(C)(C)C23CCC1C3 (centres unmarked) [Material 248]	J (Melamine formaldehyde PMC leakage less than or equal to 5%)
CCCCCCOC(=O)CCC [Material 270]	J (Melamine formaldehyde PMC leakage less than or equal to 5%)
CC1=CCC(C=CC(C)(C)C(C)O)C1(C)C (centres unmarked) [Material 53]	J (Melamine formaldehyde PMC leakage less than or equal to 5%)
CCCOC(=O)[C@H](C)OC(C)(C)CC [Material 1030]	J (Melamine formaldehyde PMC leakage less than or equal to 5%)
CC12CCCC(O)(C1)C1CC(C)(C)C1CC2 (centres unmarked) [Material 574]	J (Melamine formaldehyde PMC leakage less than or equal to 5%)
CC1=CCCC2(C)CCC(C(C)(C)O)CC12 (centres unmarked) [Material 712]	J (Melamine formaldehyde PMC leakage less than or equal to 5%)
COC(=O)c1ccccc1/N=C\C1CCC(C)=CC1C (centres unmarked) [Material 1131]	J (Melamine formaldehyde PMC leakage less than or equal to 5%)
CCCC(=O)OC1CC2CC1C1CC=CC21 (centres unmarked) [Material 484]	J (Melamine formaldehyde PMC leakage less than or equal to 5%)
CCCCCCCC(=O)OCC [Material 387]	J (Melamine formaldehyde PMC leakage less than or equal to 5%)
CC(=O)OC(C)(C)C1CC=C(C)CC1 (centres unmarked) [Material 687]	J (Melamine formaldehyde PMC leakage less than or equal to 5%)
C[C@@H]1CC[C@H]2C(C)(C)[C@H]3C[C@@]12CC1OC(C)(C)OC13C (some centres unmarked) [Material 674]	J (Melamine formaldehyde PMC leakage less than or equal to 5%)
CC1CCC2C(C)(C)C3CC12CCC3(C)OC=O (centres unmarked) [Material 566]	J (Melamine formaldehyde PMC leakage less than or equal to 5%)
